{
  "source": "paper PMC10687140",
  "binders": {"B1": {"name": "SPINK1 (protein, UniProt P00995 24-79)", "chain": "DSLGREAKCYNELNGCTKIYDPVCGTDGNTYPNECVLCFENRKRQTSILIQKSGPC"}},
  "molecular_target": "EGFR (human (endogenous in Huh7)) (UniProt P00533)",
  "assay": "co-IP; Huh7 cells lysed in NETN buffer (20 mM Tris-HCl pH 8.0, 100 mM NaCl, 1 mM EDTA, 0.5% NP40); lysate incubated with SPINK1 antibody (clone 4D4) or EGFR antibody (clone D38B1) overnight at 4°C, Protein A Sepharose beads 3 hours at 4°C; mouse IgG and rabbit IgG as controls; Western blot",
  "note": "Results are given in words; binding and its absence hold for the method and conditions named. In cells and extracts the contact can be indirect. Some entries that bind do so weakly or less than the wild type.",
  "data": [
    {"binder": "B1", "values": [
      {"measurement": "binding", "result": "binds"}
    ]}
  ]
}
